Positions count from the first letter of the chain named. Results are given in words; binding and its absence hold for the method and conditions named. Binding seen in cells or lysates may run through a third protein. Some binding calls cover weakened binding; strength is not graded here. Where a sequence is shown, tags or fusion partners need not be part of it.
Columns and labels:
[1] = biological target: T1, open mutant Stx3(L165A/E166A), myc-tagged (human) (UniProt Q13277); assay: co-IP
T1 sequence: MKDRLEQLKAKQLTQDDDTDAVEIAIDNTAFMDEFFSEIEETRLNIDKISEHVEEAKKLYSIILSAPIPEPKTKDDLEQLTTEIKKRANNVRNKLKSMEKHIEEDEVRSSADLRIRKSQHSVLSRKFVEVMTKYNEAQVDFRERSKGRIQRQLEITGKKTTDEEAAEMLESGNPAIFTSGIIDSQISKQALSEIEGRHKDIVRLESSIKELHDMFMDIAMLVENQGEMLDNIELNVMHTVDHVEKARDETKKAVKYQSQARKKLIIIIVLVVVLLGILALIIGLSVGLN

[2] = biological target: T2, C-terminally myc-epitope tagged Stx3 (membrane-anchored Stx3A) (human) (UniProt Q13277); assay: co-IP
T2 sequence: T1 sequence with A165L, A166E

binding [1]: binds | binding [2]: binds
B1: RanBP5 (in HEK293T lysate) (protein, UniProt O00410 1-1097)
chain: MAAAAAEQQQFYLLLGNLLSPDNVVRKQAEETYENIPGQSKITFLLQAIRNTTAAEEARQMAAVLLRRLLSSAFDEVYPALPSDVQTAIKSELLMIIQMETQSSMRKKVCDIAAELARNLIDEDGNNQWPEGLKFLFDSVSSQNVGLREAALHIFWNFPGIFGNQQQHYLDVIKRMLVQCMQDQEHPSIRTLSARATAAFILANEHNVALFKHFADLLPGFLQAVNDSCYQNDDSVLKSLVEIADTVPKYLRPHLEATLQLSLKLCGDTSLNNMQRQLALEVIVTLSETAAAMLRKHTNIVAQTIPQMLAMMVDLEEDEDWANADELEDDDFDSNAVAGESALDRMACGLGGKLVLPMIKEHIMQMLQNPDWKYRHAGLMALSAIGEGCHQQMEGILNEIVNFVLLFLQDPHPRVRYAACNAVGQMATDFAPGFQKKFHEKVIAALLQTMEDQGNQRVQAHAAAALINFTEDCPKSLLIPYLDNLVKHLHSIMVLKLQELIQKGTKLVLEQVVTSIASVADTAEEKFVPYYDLFMPSLKHIVENAVQKELRLLRGKTIECISLIGLAVGKEKFMQDASDVMQLLLKTQTDFNDMEDDDPQISYMISAWARMCKILGKEFQQYLPVVMGPLMKTASIKPEVALLDTQDMENMSDDDGWEFVNLGDQQSFGIKTAGLEEKSTACQMLVCYAKELKEGFVEYTEQVVKLMVPLLKFYFHDGVRVAAAESMPLLLECARVRGPEYLTQMWHFMCDALIKAIGTEPDSDVLSEIMHSFAKCIEVMGDGCLNNEHFEELGGILKAKLEEHFKNQELRQVKRQDEDYDEQVEESLQDEDDNDVYILTKVSDILHSIFSSYKEKVLPWFEQLLPLIVNLICPHRPWPDRQWGLCIFDDVIEHCSPASFKYAEYFLRPMLQYVCDNSPEVRQAAAYGLGVMAQYGGDNYRPFCTEALPLLVRVIQSADSKTKENVNATENCISAVGKIMKFKPDCVNVEEVLPHWLSWLPLHEDKEEAVQTFNYLCDLIESNHPIVLGPNNTNLPKIFSIIAEGEMHEAIKHEDPCAKRLANVVRQVQTSGGLWTECIAQLSPEQQAAIQELLNSA

Source: article doi:10.1101/162958
